Measurements reported in PubChem BioAssay AID504793 (Drosophila RNAi Screening Center, 2011)
In all, the deposit lists about 23,000 reagents; below is a random part of those that have a named target and a result. Of all reagents, 62 (0.27%) are marked active. 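Calls come from follow-up tests whose scores are not deposited, so confirmed genes may have low counts here; counts are not normalised per plate.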 The raw values are shown without normalisation. Unmarked entries are inactive. The numbers tell different reagents against one gene apart. A plus sign joins genes that one reagent is predicted to hit. Reagent sequences are not shown.

Assay: 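Genes required for cells to halt at G2/M after double-strand DNA breaks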 (primary screen)
Cells: Drosophila S2R+ cells
Knock-down reagent: long dsRNA against Drosophila genes, about 0.25 µg dsRNA per well
Timing: 4 days of dsRNA, then 4 hours of drug before read-out
Conditions: doxorubicin 0.5 µM for 4 hours to cause double-strand breaks, in cells also given a low, harmless dose of dsRNA against nbs to sensitise the assay
Read-out: 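Mitotic index as the number of phospho-histone H3-positive cells in each well following doxorubicin, given as raw counts without normalisation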
Direction: mitotic cells: higher = more cells in mitosis, weaker G2 arrest
Hit rule: 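Genes are called active only when high mitotic counts were reproduced with independent dsRNAs and mitosis was checked for delay without damage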
Meaning of the calls: active = confirmed in follow-up tests; inactive = not confirmed

| gene knocked down | reagent | mitotic cells, replicate 1 | mitotic cells, replicate 2 |
| --- | --- | --- | --- |
| Sec61alpha (Sec61 alpha subunit) | 1 | 9 | – |
| CG13177 | 1 | 5 | – |
| CG7071 + Muted | 1 | 4 | – |
| Polr2H (RNA polymerase II, I and III subunit H) | 1 | 20 (active) | – |
| CG14506 | 1 | 18 | – |
| CG8858 | 1 | 13 | – |
| Mgat2 | 1 | 2 | – |
| Mgat2 | 2 | 6 | – |
| CG14246 | 1 | 4 | – |
| CG14246 | 2 | 10 | – |
| ppk17 (pickpocket 17) | 1 | 4 | – |
| otp (orthopedia) | 1 | 7 | – |
| otp (orthopedia) | 2 | 8 | – |
| otp (orthopedia) | 3 | 6 | – |
| Aduk (Another Drosophila Unc-51-like kinase) | 1 | 6 | – |
| Aduk (Another Drosophila Unc-51-like kinase) | 2 | 5 | – |
| Muc14A (Mucin 14A) | 1 | 1 | – |
| Use1 (Unconventional SNARE in the ER 1) | 1 | 4 | – |
| Use1 (Unconventional SNARE in the ER 1) | 2 | 3 | – |
| hob (hobbit) | 1 | 6 | – |
| hob (hobbit) | 2 | 8 | – |
| CG15701 | 1 | 9 | – |
| CG30060 | 1 | 10 | – |
| CG17329 | 1 | 4 | – |
| CG17329 | 2 | 7 | – |
| per (period) | 1 | 8 | – |
| per (period) | 2 | 7 | – |
| TwdlD (TweedleD) | 1 | 5 | – |
| Strica (Ser/Thr-rich caspase) | 1 | 7 | – |
| CG32750 | 1 | 12 | – |
| CG14932 | 1 | 5 | – |
| CG14932 | 2 | 3 | – |
| CG9801 | 1 | 3 | – |
| KP78b + KP78a | 1 | 22 | – |
| KP78b + KP78a | 2 | 13 | – |
| KP78b + KP78a | 3 | 3 | – |
| Ldaf1 (Lipid droplet assembly factor 1) | 1 | 9 | – |
| Ldaf1 (Lipid droplet assembly factor 1) | 2 | 12 | – |
| bora (aurora borealis) | 1 | 18 | – |
| CG30391 | 1 | 5 | – |
| Ciao1 | 1 | 7 | – |

Copied from the list:
Value for per (period) #1 in “mitotic cells, replicate 1”: 8
Value for Mgat2 #2 in “mitotic cells, replicate 1”: 6
For “mitotic cells, replicate 1”, CG14506 shows 18
Under “mitotic cells, replicate 1”, Mgat2 #1 is entered as 2
For “mitotic cells, replicate 1”, CG14932 #1 reads 5
Result of CG32750 under “mitotic cells, replicate 1”: 12

Additional results follow.
| gene knocked down | reagent | mitotic cells, replicate 1 | mitotic cells, replicate 2 |
| --- | --- | --- | --- |
| Adgf-B (Adenosine deaminase-related growth factor B) | 1 | 8 | – |
| Adgf-B (Adenosine deaminase-related growth factor B) | 2 | 11 | – |
| CG16935 | 1 | 9 | – |
| CG15014 | 1 | 1 | – |
| CG15014 | 2 | 5 | – |
| Polr2G (RNA polymerase II subunit G) | 1 | 15 | – |
| CG4582 | 1 | 13 | – |
| CG43775 | 1 | 5 | – |
| CG8065 | 1 | 1 | – |
| crq (croquemort) | 1 | 6 | – |
| Asx (Additional sex combs) | 1 | 3 | – |
| deltaTry + CG30031 + CG30025 + 1 more | 1 | 4 | – |
| Sec61gamma (Sec61 gamma subunit) | 1 | 11 | – |
| Sec61gamma (Sec61 gamma subunit) | 2 | 5 | – |
| CG5280 | 1 | 3 | – |
| CG5280 | 2 | 10 | – |
| FipoQ (F-box involved in polyQ pathogenesis) | 1 | 12 | – |
| FipoQ (F-box involved in polyQ pathogenesis) | 2 | 6 | – |
| CG10073 | 1 | 8 | – |
| Spn42Dc (Serpin 42Dc) | 1 | 7 | – |
| insv (insensitive) | 1 | 1 | – |
| insv (insensitive) | 2 | 7 | – |
| CG17658 | 1 | 2 | – |
| CG17068 | 1 | 4 | – |
| CG17567 (retired record) | 1 | 1 | – |
| CG17567 (retired record) | 2 | 7 | – |
| CG17567 (retired record) | 3 | 3 | – |
| CG42299 + CG42300 | 1 | 16 | – |
| CG42299 + CG42300 | 2 | 5 | – |
| CG34382 | 1 | 8 | – |
| CG34382 | 2 | 2 | – |
| tal-1A + tal-2A + tal-AA + 1 more | 1 | 10 | – |
| CG17930 | 1 | 15 | – |
| CG17930 | 2 | 8 | – |
| Sumo (Small ubiquitin like modifier) | 1 | 16 | – |
| CG42747 | 1 | 9 | – |
| CG42747 | 2 | 8 | – |
| CG42747 | 3 | 1 | – |
| CG5157 | 1 | 10 | – |
| CG5157 | 2 | 7 | – |
| CG6661 | 1 | 1 | 8 |
| CG6661 | 2 | 8 | – |
| CG6661 | 3 | 10 | – |
| CG4572 | 1 | 15 | – |
| CG13032 | 1 | 3 | – |
| Fum4 (Fumarase 4) | 1 | 13 | – |
| Fum4 (Fumarase 4) | 2 | 4 | – |
| CG11263 | 1 | 8 | – |
| Ugt301D1 (UDP-glycosyltransferase family 301 member D1) | 1 | 3 | – |
| RanBPM (Ran-binding protein M) | 1 | 10 | – |
| RanBPM (Ran-binding protein M) | 2 | 5 | – |
| ATPsynbetaL (ATP synthase, beta subunit-like) | 1 | 8 | – |
| ATPsynbetaL (ATP synthase, beta subunit-like) | 2 | 3 | – |
| RunxB (Runt related B) | 1 | 7 | – |
| RunxB (Runt related B) | 2 | 11 | – |
| RunxB (Runt related B) | 3 | 6 | – |
| RunxB (Runt related B) | 4 | 15 | – |
| RunxB (Runt related B) | 5 | 4 | – |
| r + CG13012 | 1 | 13 | – |
| CG3862 | 1 | 4 | – |
| CG3862 | 2 | 8 | – |
| Ugt302C1 (UDP-glycosyltransferase family 302 member C1) | 1 | 6 | – |
| Ugt302C1 (UDP-glycosyltransferase family 302 member C1) | 2 | 2 | – |
| Adgf-D (Adenosine deaminase-related growth factor D) | 1 | 5 | – |
| EMC10 (ER membrane protein complex subunit 10) | 1 | 4 | – |
| CG32445 | 1 | 15 | – |
| CG15465 | 1 | 17 | – |
| CG15465 | 2 | 7 | – |
| Mks1 (Meckel syndrome, type 1) | 1 | 9 | – |
